PubChem BioAssay AID686938, Drosophila RNAi Screening Center, 2013

- Assay: 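Knock-downs reducing store-operated calcium influx in Drosophila cells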 (primary screen)
- Cell system: Drosophila S2R+ cells
- Knock-down reagent: long dsRNA against Drosophila genes, about 0.25 µg dsRNA per well, roughly 10,000 cells
- Time to read-out: 5 days of knock-down before the calcium assay
- Treatment: thapsigargin (SERCA pump blocker) to empty calcium stores; entry signal taken 4 min after adding it
- Measured: 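Duplicate raw fluo-4 intensities per well from a plate reader, at rest and four minutes after thapsigargin emptied calcium stores; entry-to-rest ratio filled for only some wells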
- Reading the numbers: calcium entry signal: higher = stronger calcium signal after store depletion; entry to resting ratio: higher = more calcium entry relative to resting level; resting calcium signal: higher = higher resting calcium signal
- Call rule: 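Hit if the duplicate-averaged plate z-score for entry over resting signal is under −3; wells with weak total dye signal (Fmax z < −2) or more than 5 off-targets removed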
- Calls: active = strongly reduced calcium entry; inactive = no strong reduction
The deposit covers about 23,000 reagents; this is an unselected part of those that have a named target and a result. Of all reagents, 75 (0.33%) are marked active. 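Raw plate signals without normalisation; calls rest on plate z-scores that were not deposited; ratio present for only 364 wells.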 A plus sign joins genes that one reagent is predicted to hit. Reagent sequences are not shown. Not given: the dose of the treatment.

target	dsRNA	calcium entry signal, replicate 1 (fluorescence units)	calcium entry signal, replicate 2 (fluorescence units)	entry to resting ratio	resting calcium signal, replicate 1 (fluorescence units)	resting calcium signal, replicate 2 (fluorescence units)	Call
fs(1)Yb	DRSC18777	3.61e7	4.79e7	1.9	1.88e7	1.98e7	inactive
CG32727	DRSC17519	3.14e7	3.63e7		1.54e7	1.69e7	inactive
SP	DRSC09664	3.15e7	4.99e7		1.58e7	2.13e7	inactive
Dlip3	DRSC07401	5.41e7	6.15e7		2.10e7	2.77e7	inactive
Csl4	DRSC02944	3.56e7	4.67e7		1.61e7	1.99e7	inactive
Csl4	DRSC22664	2.47e7	1.96e7		1.32e7	9.83e6	inactive
CG14424	DRSC18472	4.63e7	6.16e7	2	2.28e7	2.60e7	inactive
dar1	DRSC08049	5.31e7	4.01e7		2.61e7	1.93e7	inactive
dar1	DRSC08233	2.96e7	4.80e7		1.57e7	2.24e7	inactive
CG17202	DRSC15194	4.77e7	4.85e7		2.44e7	2.52e7	inactive
CG17202	DRSC23073	3.38e7	2.95e7		1.63e7	1.28e7	inactive
CG12057	DRSC17797	2.31e7	7.10e7		1.24e7	2.74e7	inactive
Meltrin	DRSC16274	2.98e7	4.59e7		1.39e7	1.96e7	inactive
Meltrin	DRSC21693	3.75e7	3.50e7		2.18e7	1.78e7	inactive
WDR79	DRSC03159	5.45e7			2.49e7		inactive
Fkbp14	DRSC04615	4.16e7			2.08e7		inactive
Nprl2	DRSC20153	3.53e7	3.53e7		1.71e7	1.67e7	inactive
Ypel	DRSC17996	3.95e7	4.28e7		1.83e7	1.91e7	inactive
CR41501	DRSC07785	3.56e7	4.00e7		1.57e7	1.94e7	inactive
eEF1gamma	DRSC16659	1.52e7	1.85e7		9.99e6	1.08e7	inactive

As entered above.
Under “resting calcium signal, replicate 2 (fluorescence units)”, SP [DRSC09664] has 2.13e7
dar1 [DRSC08049], calcium entry signal, replicate 1 (fluorescence units) = 5.31e7
Meltrin [DRSC21693], calcium entry signal, replicate 2 (fluorescence units) = 3.50e7
Result for fs(1)Yb [DRSC18777] in “calcium entry signal, replicate 1 (fluorescence units)”: 3.61e7
Nprl2 [DRSC20153], calcium entry signal, replicate 1 (fluorescence units) → 3.53e7

The list goes on:
target	dsRNA	calcium entry signal, replicate 1 (fluorescence units)	calcium entry signal, replicate 2 (fluorescence units)	entry to resting ratio	resting calcium signal, replicate 1 (fluorescence units)	resting calcium signal, replicate 2 (fluorescence units)	Call
stnB + stnA	DRSC20969	3.12e7	2.44e7		1.48e7	1.25e7	inactive
stnB + stnA	DRSC21112	5.85e7	5.07e7		2.66e7	2.17e7	inactive
stnB + stnA	DRSC21113	5.65e7	4.60e7		2.65e7	1.78e7	inactive
CG17109	DRSC15172	4.53e7	5.02e7		2.35e7	2.10e7	inactive
wda	DRSC15579	4.46e7	3.75e7		2.34e7	1.86e7	inactive
wda	DRSC22351	3.23e7	6.74e7		1.80e7	2.96e7	inactive
shrb	DRSC07061	2.39e7	2.02e7		1.42e7	1.34e7	inactive
Plp	DRSC10006	3.46e7	4.61e7		1.83e7	1.70e7	inactive
Plp	DRSC10333	3.63e7	5.23e7		1.68e7	1.95e7	inactive
Plp	DRSC10700	4.02e7	5.00e7		1.81e7	3.25e7	inactive
G9a	DRSC18619	4.15e7	6.05e7	2.2	1.89e7	2.33e7	inactive
Ask1	DRSC16789	3.88e7	3.51e7		5.43e7	1.59e7	inactive
Ask1	DRSC21697	3.78e7	3.27e7		2.08e7	1.63e7	inactive
smal	DRSC02318	3.45e7	2.17e7		1.76e7	1.16e7	inactive
smal	DRSC02319	3.60e7	4.21e7		1.90e7	1.96e7	inactive
smal	DRSC02320	3.82e7	4.12e7		1.79e7	1.80e7	inactive
smal	DRSC02504	3.40e7	4.28e7		1.70e7	1.88e7	inactive
smal	DRSC22866	1.85e7	4.06e7		1.05e7	1.87e7	inactive
Mks1	DRSC19697	4.21e7	3.02e7		2.13e7	1.59e7	inactive
Rab10	DRSC20572	5.07e7	4.18e7		2.54e7	2.41e7	inactive
CG6656	DRSC16085	2.55e7	2.34e7		1.25e7	1.18e7	inactive
Nulp1	DRSC09677	5.68e7	4.93e7		3.61e7	1.94e7	inactive
PolD3	DRSC01961	4.56e7			2.33e7		inactive
Wbp2	DRSC09821	5.78e7	4.81e7		3.43e7	2.08e7	inactive
CG7715	DRSC16301	3.13e7	3.75e7		6.21e7	1.78e7	inactive
Cdc2rk	DRSC07590	3.63e7	3.31e7		1.75e7	1.58e7	inactive
ClC-c	DRSC10499	4.50e7	4.82e7		2.18e7	3.43e7	inactive
Idgf5	DRSC06919	3.99e7	3.11e7		1.76e7	1.67e7	inactive
yip2	DRSC03640	3.71e7	4.72e7		1.83e7	2.18e7	inactive
CG13654	DRSC14654	3.40e7	6.25e7		1.81e7	2.71e7	inactive
Rab8	DRSC11261	2.76e7	4.08e7		1.31e7	2.66e7	inactive
ReepA	DRSC04572	3.65e7			1.88e7		inactive
ReepA	DRSC22475	3.76e7	3.29e7		2.01e7	1.68e7	inactive
Rgk1	DRSC05785	3.28e7	3.93e7		1.62e7	2.02e7	inactive
Rgk1	DRSC05786	3.43e7	4.99e7		1.60e7	2.30e7	inactive
Rgk1	DRSC05789	2.26e7	5.31e7		1.07e7	2.31e7	inactive
Rgk1	DRSC07343	5.23e7	3.53e7		1.92e7	1.75e7	inactive
Rgk1	DRSC07344	2.85e7	3.07e7		1.53e7	1.73e7	inactive
